Reference: publication PMC8726614

By UniProt entry, the sequences of proteins in these tests, tags left out. Where a name states a change or a piece, a line headed by the entry shows the natural chain unless it says otherwise.
UniProt B7UMC1: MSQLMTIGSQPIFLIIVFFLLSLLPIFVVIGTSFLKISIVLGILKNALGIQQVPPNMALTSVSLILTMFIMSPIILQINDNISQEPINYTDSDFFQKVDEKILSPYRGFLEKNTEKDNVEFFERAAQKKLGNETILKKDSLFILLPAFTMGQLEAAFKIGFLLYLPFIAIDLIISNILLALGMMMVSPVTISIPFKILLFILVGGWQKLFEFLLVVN
UniProt B7UMC0: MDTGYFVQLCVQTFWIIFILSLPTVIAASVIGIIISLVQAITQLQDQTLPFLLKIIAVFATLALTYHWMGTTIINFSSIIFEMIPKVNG

Molecular target: EscR-3HA (from the pEscRST plasmids, in E. coli BL21) (enteropathogenic E. coli (EPEC) O127:H6 strain E2348/69) (UniProt B7UMC1)
Assay: pull-down

## EscS-V5 (from pEscR-3HA/EscS-V5/EscT-His, in E. coli BL21) (from UniProt B7UMC0)
  binding: binds

No constants are given. Whether binding was seen depends on the method and setting. In cells and extracts the contact can be indirect. Binding can be weak; no strength is given.
